Source: PubChem BioAssay AID1259415 (National Center for Advancing Translational Sciences (NCATS), 2018)
Hit rate of the full screen: of about 410,000 compounds, about 18,000 (4.4%) were called active. Inconclusive means that the source gave no clear call. Such entries were picked first, then a sample of the others. Cut-off read from the data, not from the text of the source: active = activity change below about -60%; inconclusive = no clear call, values can overlap the other calls; inactive = above about -39%.

Test: qHTS Assay for inhibitors of the human cytomegalovirus (HCMV)
Details: HFF cells, HCMV-luciferase reporter, 72 h; at 57.5 µM; active compounds read low
Method in brief: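 Cell-based, HFFs, 1000 cells/well, 16 h 37C; cpds in DMSO + HCMV-luc, MOI 1 PFU/cell; 72 h 37C; OneGlo luminescence after 5 min RT; norm. to buffer vs Salinomycin 10uM.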
% is set by controls: 0 for no effect and ±100 for the full control effect.

Row | Compound | activity change, negative = inhibition
1 | CCN1c2ccc(S(=O)(=O)N3CCOCC3)cc2N(Cc2ccc(OC)cc2)C1C (centres undefined) | inconclusive: -42.5%
2 | Cc1nn(-c2ccccc2)c2nc(-c3cccs3)cc(C(=O)NN)c12 | inconclusive: -45.8%
3 | O=C(Nc1nnc(-c2ccncc2)o1)C1CCCCC1 | inconclusive: -44.2%
4 | COc1cccc(Nc2nc(-c3sc(NC(=O)c4ccccc4)nc3C)cs2)c1 | active: -60.6%
5 | O=C(O)C1CCC(Cn2c(SCc3cc(=O)n4cc(Cl)ccc4n3)nc3ccsc3c2=O)CC1 (centres undefined) | inactive: 19.6%
6 | O=C(CN1C(=O)/C(=C/c2ccccc2F)Sc2ccccc21)NCCCN1CCOCC1 | inconclusive: -49.1%
7 | COc1ccc(-n2ccsc2=S)cc1 | inconclusive: -41.8%
8 | COc1ccc(N2C(=O)C3CCCN3C2c2cccc(C)c2)cc1 (centres undefined) | inactive: 5.84%
9 | COC(=O)c1ccc2c(c1)NC(=O)c1ccccc1S2 | inactive: 38.6%
10 | O=C(CC(Nc1ccccc1Cl)C(=O)OCC(=O)c1cccs1)c1ccccc1 (centres undefined) | inconclusive: -41.8%
11 | Oc1ccccc1/C=N/Nc1nccnc1Cl | active: -100%
12 | CC1CCN(CCCCOc2ccccc2Br)CC1 | inconclusive: -48.9%
13 | CC(=O)OC1C(O)C(C)OC(OC2C(OC(=O)C3CCC4C(C3)OC3(CC(OC(=O)/C=C/c5ccccc5)C(C)CO3)C43CO3)OC(C)C(O)C2OC(C)=O)C1O (centres undefined) | active: -97.8%
14 | Oc1ccc(C[C@H]2CN([C@@H](Cc3ccccc3)CN3CCCC3CN3C(=S)NC[C@@H]3Cc3ccccc3)C(=S)N2CC2CCCCC2)cc1 (some centres undefined) | inconclusive: -55.1%
15 | CC[C@@]1(O)C(=O)OCc2c1cc1n(c2=O)Cc2cc3c(CN(C)C)c(O)ccc3nc2-1 | active: -97.3%
16 | COc1ccc(OCc2nn3c(-c4ccco4)nnc3s2)cc1 | inactive: -27.3%
17 | CCOC1=C2CN(S(=O)(=O)c3ccc(C)cc3)C(c3cccc(Cl)c3)CC2NC(c2ccccc2)C1 (centres undefined) | inactive: 35.3%
18 | O=C(CCN1CCCC1)c1cccs1 | inactive: -12.5%
19 | CC1Cc2cc(S(=O)(=O)CCC(=O)Nc3ccccc3F)ccc2N1C(=O)C1CC1 (centres undefined) | inconclusive: -47.3%
20 | CNc1nc(-c2cccc(C(=O)N(C)C)c2)cn2ccnc12 | inactive: 6.07%
21 | CCOC(=O)N1CCc2c(sc(NCc3ccc(N(CC)CC)cc3)c2C(=O)Nc2cc(OC)ccc2OC)C1 | inactive: -4.12%

Row | Compound | activity change, negative = inhibition
22 | CNc1cccnc1C=NNC(N)=S | active: -98.7%
23 | CC[C@]12C(=O)N(C)C[C@H]([C@@H]3C(=O)N(C)C(=O)[C@@H]31)N2C(=O)c1ccc(C)cc1 | inactive: -2.5%
24 | O=S(=O)(NCC(c1cccs1)S(=O)(=O)c1ccccc1)c1ccccc1 (centres undefined) | inactive: 26.8%
25 | O=c1cc(CN2CCCCC2)c2c(ccc3ccccc32)o1 | inactive: -7.79%
26 | Cc1ccc(-n2c(=O)c3ccc(C(=O)NCc4ccco4)cc3n(CC(=O)Nc3ccc(C)c(F)c3)c2=O)cc1 | inconclusive: -49%
27 | CCCC(C(=O)NC1=NCCS1)c1ccccc1 (centres undefined) | inconclusive: -42.5%
28 | Cc1ccc(-c2ccc([C@H]3[C@@H]4C=CCC[C@@]4(C)C(=O)N3Cc3ccccc3)c(F)c2)cc1 | inactive: 87.2%
29 | CC1CCc2c(sc(NC(=S)NC(=O)c3ccccc3)c2C#N)C1 (centres undefined) | inactive: -32.6%
30 | CCO[C@H]1OC(C(=O)NCc2nc3ccccc3[nH]2)=C[C@@H](c2ccc(C(F)(F)F)cc2)[C@@H]1CCCO | inactive: -35.4%
31 | COc1ccccc1-c1ccccc1C1=CC(=O)CC(C)(C)C1=O | inactive: -10.4%
32 | CC1(C)CC(=O)C2=C(C1)N(c1ccc(F)cc1)C(N)=C(C#N)C2c1cccs1 (centres undefined) | inconclusive: -56.3%
33 | Cc1ccc(Cc2cnc(NC(=O)/C(C#N)=C/c3ccc(-c4ccc([N+](=O)[O-])cc4)o3)s2)cc1 | inconclusive: -59.7%
34 | COc1ccc(CC(=O)Nc2cc(C)ccc2O)cc1OC | inconclusive: -59.6%
35 | CN=c1c([N+](=O)[O-])nn(-c2ccc3c(c2)OCCO3)n1O | inconclusive: -42%
36 | CCOC(=O)C(C(=O)OCC)[C@@H]1CS(=O)(=O)C[C@H]1C(C(=O)OCC)C(=O)OCC | inconclusive: -45.5%
37 | COc1ccc(NC(=S)N2CCC(C(O)(c3ccccc3)c3ccccc3)CC2)cc1 | inactive: -17%
38 | Cc1cc2n(n1)C(c1ccc3c(c1)OCO3)Nc1ccccc1-2 (centres undefined) | inactive: 47.1%
39 | CCC1(c2ccccc2)NC(=O)N(CC(=O)NCc2ccccc2OC)C1=O (centres undefined) | inconclusive: -56.9%
40 | Cc1ccc(-n2nc3c(=O)n(CCCC(=O)NCc4cccc(F)c4)nc(C)c3c2C)cc1 | inconclusive: -50.9%
41 | O=C(Cc1ccc(Br)cc1)N(Cc1ccccc1)c1ccccn1 | inconclusive: -56.6%
42 | O=C(Nc1nc2n(n1)C(c1ccc(F)cc1)C=C(c1ccc(Cl)cc1)N2)c1ccc([N+](=O)[O-])cc1 (centres undefined) | inconclusive: -40.2%

Some of the entries above, set out differently:
Row	Compound	activity change, negative = inhibition
25	O=c1cc(CN2CCCCC2)c2c(ccc3ccccc32)o1	inactive: -7.79%
26	Cc1ccc(-n2c(=O)c3ccc(C(=O)NCc4ccco4)cc3n(CC(=O)Nc3ccc(C)c(F)c3)c2=O)cc1	inconclusive: -49%
27	CCCC(C(=O)NC1=NCCS1)c1ccccc1 (centres undefined)	inconclusive: -42.5%
28	Cc1ccc(-c2ccc([C@H]3[C@@H]4C=CCC[C@@]4(C)C(=O)N3Cc3ccccc3)c(F)c2)cc1	inactive: 87.2%
29	CC1CCc2c(sc(NC(=S)NC(=O)c3ccccc3)c2C#N)C1 (centres undefined)	inactive: -32.6%

Additional results.

Row | Compound | activity change, negative = inhibition
43 | CN(C)CCNC(C(=O)Nc1cc(Cl)cc(Cl)c1)c1ccccc1 (centres undefined) | inconclusive: -44.3%
44 | Cn1nc(C(C)(C)C)cc1C(=O)NCc1cc(F)cc2c1OCOC2 | active: -71.6%
45 | c1ccc(NCCCNc2ccccc2)cc1 | inconclusive: -46.4%
46 | O=C(CNc1cccc([N+](=O)[O-])c1)N1CCN(S(=O)(=O)c2ccc(Cl)cc2)CC1 | inactive: -11%
47 | CCCc1nc2ccccc2c(=O)n1NC(=O)c1c(O)c2ccccc2[nH]c1=O | inconclusive: -42.4%
48 | COc1ccc(Cl)cc1NC(=O)CC1S/C(=N/N=C2CCCCCC2)NC1=O (centres undefined) | inactive: 17.7%
49 | CC1(C)Cc2ccccc2-c2n[nH]c(=S)n21 | inconclusive: -51%
50 | CCC(C)NC(=O)COc1ccc(S(=O)(=O)N2CCOCC2)cc1 (centres undefined) | inactive: -11.2%
51 | Fc1cccc(NC(=S)Nc2cccnc2)c1 | inconclusive: -41.2%
52 | COc1ccc(C/C(N)=N/n2cnnc2)cc1 | inconclusive: -41.1%
53 | Cc1ccccc1OCCC(=O)Nc1cccc(S(=O)(=O)Nc2ccccc2Cl)c1 | inconclusive: -43.2%
54 | Cc1cc(C)cc(-n2ccn(CC(=O)c3ccc(F)cc3)c(=O)c2=O)c1 | inconclusive: -59.2%
55 | COc1ccc(NC(=O)CCSc2nnnn2C)cc1 | inactive: -35.5%
56 | COc1ccc(NC(=O)c2ccccc2Oc2ccccc2)c(OC)c1 | inconclusive: -51.3%
57 | COCCCN(C(=S)NC(=O)c1ccc(C(C)(C)C)cc1)c1c(N)n(Cc2ccccc2)c(=O)[nH]c1=O | inconclusive: -59.6%
58 | CC(C)NC(=O)CSc1cn(CC(=O)N2CCCCCC2)c2ccccc12 | inconclusive: -50.4%
59 | CCOc1ccccc1NCc1nnc2n1CCCCC2 | inactive: 2.93%
60 | C[C@@H](C(=O)N1CCN(Cc2ccc3c(c2)OCO3)CC1)n1nnc2ccccc2c1=O | inactive: 21.4%
61 | CCOC(=O)[C@H]1[C@H]2COc3ccc(OC)cc3[C@@H]2N2C(=O)c3cc(C)ccc3NC(=O)[C@@]12C | active: -61.5%
62 | C=C(C)Cn1c(N2CCN(c3ccc(OC)cc3)CC2)nc2c1c(=O)n(C)c(=O)n2C | inconclusive: -50.2%
63 | COc1ccc(Cl)cc1Cn1c(C)c(C(=O)NCc2cccc(C(F)(F)F)c2)sc1=O | inconclusive: -48.8%

Row | Compound | activity change, negative = inhibition
64 | Cc1ccccc1/C=C1\C(=O)Nc2ccc(F)cc21 | inconclusive: -58.2%
65 | Cc1ccc(S(=O)(=O)Nc2ccc(-c3ccc(N4CCCCCC4)nn3)cc2)c(C)c1 | inactive: -14%
66 | CCc1cc(CNC(=O)CC2C(=O)NCCN2Cc2ccc(-c3ccccc3)cc2)on1 (centres undefined) | inconclusive: -43.6%
67 | CC1CCC(NC(=O)c2ccc3c(c2)N(Cc2ccccc2F)C(=O)c2ccccc2S3(=O)=O)CC1 (centres undefined) | inactive: 57.1%
68 | CSc1nc2ccc(S(=O)(=O)N(C)C)cc2s1 | inconclusive: -43.2%
69 | COc1ccc(-n2c(SCc3ccc([N+](=O)[O-])cc3)nnc2-c2ccc(C)cc2)cc1 | inconclusive: -47.8%
70 | C=CCN(CC=C)c1ncnc2[nH]ncc12 | active: -86%
71 | Cc1c(Cl)cccc1NC(=S)NCc1ccccc1Cl | inconclusive: -40.4%
72 | COc1cc(F)ccc1Oc1cccc2c1S(=O)(=O)N(C1CC1)C[C@@H](COCc1ccccc1)O2 | inactive: -29.8%
73 | CCOc1ccc(CNc2cc(C)nc3nc(-c4cccc(C)c4)nn23)cc1OC | inactive: 360%
74 | O=C(Nc1cccc(Cl)c1)C1CCCCC1 | inconclusive: -50.5%
75 | Nc1[nH]c(C(=O)c2ccccc2)c(-c2cccnc2)c1C(=O)NCCc1ccc(Cl)cc1Cl | inactive: 0.128%
76 | CC(C)(C)C(=O)CN1C(=O)NC2(CCCc3ccccc32)C1=O (centres undefined) | inconclusive: -46.3%
77 | CCN(CC(=O)Nc1c(F)cccc1F)C(=O)CCNC(=O)c1ccc([N+](=O)[O-])cc1 | inactive: -25.5%
78 | CCCCNC(=S)N/N=C/c1ccc(OCC(=O)Nc2c(C)cc(C)cc2C)c(OC)c1 | inconclusive: -41.9%
79 | Cc1nc(-c2ccccn2)nc(SCC(=O)c2ccc(F)cc2)c1Cl | inconclusive: -50.4%
80 | COc1ccc2[nH]c3c(=O)n(CCc4ccccc4)cnc3c2c1 | inconclusive: -49.8%
81 | COc1ccc(/C=C(\C#N)C(=O)NC(C)c2ccccc2)cc1O (centres undefined) | inconclusive: -51.8%
82 | CCN(CC)C(=O)c1cccc(-c2csc(C(C)(O)c3cccc(F)c3)n2)c1 (centres undefined) | inconclusive: -48.3%
83 | CCc1ccc(-c2nc(CS(=O)CC(=O)NCc3ccc(F)cc3)c(C)o2)cc1 (centres undefined) | inconclusive: -45%
84 | CCC(C)c1ccc(NC(=S)NC2CCN(Cc3ccccc3)CC2)cc1 (centres undefined) | active: -98.3%
